Assay results reported in US20200340060A1, “COMPOSITIONS AND METHODS FOR IDENTIFYING AND TREATING LIVER DISEASES AND MONITORING TREATMENT OUTCOMES” (Gilead Sciences, Inc., priority 2017, published 2020).

B1: KIF23 (protein, UniProt Q02241 1-960, looked up)
Kinesin-like protein KIF23: MKSARAKTPRKPTVKKGSQTNLKDPVGVYCRVRPLGFPDQECCIEVINNTTVQLHTPEGYRLNRNGDYKETQYSFKQVFGTHTTQKELFDVVANPLVNDLIHGKNGLLFTYGVTGSGKTHTMTGSPGEGGLLPRCLDMIFNSIGSFQAKRYVFKSNDRNSMDIQCEVDALLERQKREAMPNPKTSSSKRQVDPEFADMITVQEFCKAEEVDEDSVYGVFVSYIEIYNNYIYDLLEEVPFDPIKPKPPQSKLLREDKNHNMYVAGCTEVEVKSTEEAFEVFWRGQKKRRIANTHLNRESSRSHSVFNIKLVQAPLDADGDNVLQEKEQITISQLSLVDLAGSERTNRTRAEGNRLREAGNINQSLMTLRTCMDVLRENQMYGTNKMVPYRDSKLTHLFKNYFDGEGKVRMIVCVNPKAEDYEENLQVMRFAEVTQEVEVARPVDKAICGLTPGRRYRNQPRGPVGNEPLVTDVVLQSFPPLPSCEILDINDEQTLPRLIEALEKRHNLRQMMIDEFNKQSNAFKALLQEFDNAVLSKENHMQGKLNEKEKMISGQKLEIERLEKKNKTLEYKIEILEKTTTIYEEDKRNLQQELETQNQKLQRQFSDKRRLEARLQGMVTETTMKWEKECERRVAAKQLEMQNKLWVKDEKLKQLKAIVTEPKTEKPERPSRERDREKVTQRSVSPSPVPLSSNYIAQISNGQQLMSQPQLHRRSNSCSSISVASCISEWEQKIPTYNTPLKVTSIARRRQQEPGQSKTCIVSDRRRGMYWTEGREVVPTFRNEIEIEEDHCGRLLFQPDQNAPPIRLRHRRSRSAGDRWVDHKPASNMQTETVMQPHVPHAITVSVANEKALAKCEKYMLTHQELASDGEIETKLIKGDIYKTRGGGQSVQFTDIETLKQESPNGSRKRRSSTVAPAQPDGAESEWTDVETRCSVAVEMRAGSQLGPGYQHHAQPKRKKP
B2: ALT (protein, UniProt P24298 2-496, looked up)
Alanine aminotransferase 1: ASSTGDRSQAVRHGLRAKVLTLDGMNPRVRRVEYAVRGPIVQRALELEQELRQGVKKPFTEVIRANIGDAQAMGQRPITFLRQVLALCVNPDLLSSPNFPDDAKKRAERILQACGGHSLGAYSVSSGIQLIREDVARYIERRDGGIPADPNNVFLSTGASDAIVTVLKLLVAGEGHTRTGVLIPIPQYPLYSATLAELGAVQVDYYLDEERAWALDVAELHRALGQARDHCRPRALCVINPGNPTGQVQTRECIEAVIRFAFEERLFLLADEVYQDNVYAAGSQFHSFKKVLMEMGPPYAGQQELASFHSTSKGYMGECGFRGGYVEVVNMDAAVQQQMLKLMSVRLCPPVPGQALLDLVVSPPAPTDPSFAQFQAEKQAVLAELAAKAKLTEQVFNEAPGISCNPVQGAMYSFPRVQLPPRAVERAQELGLAPDMFFCLRLLEETGICVVPGSGFGQREGTYHFRMTILPPLEKLRLLLEKLSRFHAKFTLEYS
B3: LG3BP (protein, UniProt Q08380 19-585, looked up)
Galectin-3-binding protein: VNDGDMRLADGGATNQGRVEIFYRGQWGTVCDNLWDLTDASVVCRALGFENATQALGRAAFGQGSGPIMLDEVQCTGTEASLADCKSLGWLKSNCRHERDAGVVCTNETRSTHTLDLSRELSEALGQIFDSQRGCDLSISVNVQGEDALGFCGHTVILTANLEAQALWKEPGSNVTMSVDAECVPMVRDLLRYFYSRRIDITLSSVKCFHKLASAYGARQLQGYCASLFAILLPQDPSFQMPLDLYAYAVATGDALLEKLCLQFLAWNFEALTQAEAWPSVPTDLLQLLLPRSDLAVPSELALLKAVDTWSWGERASHEEVEGLVEKIRFPMMLPEELFELQFNLSLYWSHEALFQKKTLQALEFHTVPFQLLARYKGLNLTEDTYKPRIYTSPTWSAFVTDSSWSARKSQLVYQSRRGPLVKYSSDYFQAPSDYRYYPYQSFQTPQHPSFLFQDKRVSWSLVYLPTIQSCWNYGFSCSSDELPVLGLTKSGGSDRTIAYENKALMLCEGLFVADVTDFEGWKAAIPSALDTNSSKSTSSFPCPAGHFNGFRTVIRPFYLTNSSGVD

Experiment: SOMAscan serum proteomics in NASH subjects treated with selonsertib/simtuzumab, baseline and week 24
Design: species or system human
Conditions: serum protein marker level, week 24 vs baseline
[1] = lobular inflammation non-improvers

Molecule	Median percent CHG at W24 in improver (lobular inflammation improvers) [%]	Median percent CHG at W24 in Non-improver [1] [%]	Median percent CHG at W24 in improver (hepatic ballooning improvers) [%]	Median percent CHG at W24 in Non-improver (hepatic ballooning non-improvers) [%]
B1	2.93	−2.64	–	–
B2	−9.27	−0.07	–	–
B3	–	–	−7.56	7.44
